Test results published in PubChem BioAssay AID1347423 (Functional Genomics Laboratory (NCATS/FGL), 2020).
The campaign covered roughly 52,000 sequences. About 210 (0.4%) were called active.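 How the source made its calls: active means gene whose silencing raises cell survival under the drug, median off-target-corrected z-score across its silencing RNAs 2 or more; inactive means the rest.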 This is one part of the list.

Assay: Resistance to Poly (ADP-Ribose) Polymerase inhibitor: Gene Identification via Genome-wide siRNA Screen
Settings: mouse BRCA2 R2336H ES cells, olaparib, CellTiter-Glo viability; hits give high values
Outline: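 Genome-wide siRNA screen (3 siRNAs/gene, 20 nM) in mouse ES cells carrying hypomorphic BRCA2 R2336H; olaparib 500 nM added 48 h post-transfection, CellTiter-Glo viability 72 h later. Normalized to plate-median negative control; MAD z-scores, gene median, seed-adjusted.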
With GCACAAAUUAAAUGUUAGGTT against Zhx2 the z-score was inactive: 0.552. With CGGGAGUCGGAGAUUUGAATT against Kcnj12 the z-score was inactive: -0.0398. With GGAGGAUGGGUGUGAAUCUTT against Pycr2 the z-score was inactive: -1.85. With GCACACCUCUAUCCUUUUGTT against Pcsk9 the z-score was inactive: -1.87. In the case of GGAUUCAAGAGAAAAGAACTT against Gltscr2, the z-score is reported as inactive: -1.65. For GGACAAGUCGAAGAGUGAGTT against Ing1, the z-score was inactive: -1.7. In the case of GCAUUUCAAUCGCACGUUUTT against Gal3st2, the z-score is reported as inactive: 2.72. In the case of GGUUUUGUUCAGAUCAGAUTT against Gemin6, the z-score is reported as inactive: 0.639. For GCUAAGACACCGAGAGGAATT against Rassf4, the z-score was inactive: -0.885. In the case of GCUAGAUAUAUUUGCCCACTT against Fin15, the z-score is reported as inactive: 1.14. For GGGAUUUCUUUUUCUAGUUTT against Fgd5, the z-score was inactive: 0.224. With GCGUAUCAAGUUCUCUAGGTT against Nical the z-score was inactive: 0.865. With CCUAUAUUGGAGAGAUAUUTT against Serpinb6a the z-score was inactive: -0.341. For “CCAGAUGAAUGUAACACGCTT against D930038D03Rik”, the z-score was inactive: 0.712. With “GGGACACAACCACAAUAACTT against 1700017I11Rik” the z-score was inactive: 0.406. In the case of “GGGCAAGUAUACCUUCAAUTT against 1700010A17Rik”, the z-score is reported as inactive: -0.321. In the case of GGAAGCAUCUGAUGUCAUUTT against Txndc4, the z-score is reported as inactive: 0.117. With GCUGUGUACUCUGCCCUGATT against Olfr346 the z-score was inactive: -0.851. For GAAUUCCAGCUUAUUCCUUTT against Klra15, the z-score was inactive: 0.0764. In the case of GGCAGCCAAGAGAUUGAAUTT against Suclg2, the z-score is reported as inactive: 0.874. For GGUUGUUUGACCAACAGCUTT against Inpp5d, the z-score was inactive: -0.0229. With GGUGAUAUUGUUGUACUUATT against Olfr1058 the z-score was inactive: 0.595. In the case of “GGAAGUGGUGGAACUCCUGTT against A930001M12Rik”, the z-score is reported as inactive: -0.535. With GGAAAGUUUGAAGAUGUGUTT against Mknk1 the z-score was inactive: -0.888. With CGAUCGUAUUCAAUGGAAATT against Rims2 the z-score was inactive: 0.0642. For GGUCAUGCACACUCGAAAUTT against Mrpl54, the z-score was inactive: 0.673. In the case of GCUUUGAUAGAUACUUCUGTT against Chrm2, the z-score is reported as inactive: 1.47. With “CCAGGAUUAUAGGUUUUAGTT against F830104D24Rik” the z-score was inactive: 0.877. In the case of GGUGGUAUGCAAGAUUACATT against Cpd, the z-score is reported as inactive: 0.113. For GGAAUCUGUCAUGUGAAUATT against Slc1a5, the z-score was inactive: 0.896. For GCGUAUCCCAGAUAUCCGATT against BC064033, the z-score was inactive: 0.0741. For “GCAUACCUCCGUAUUGUGATT against 4732481H14Rik”, the z-score was inactive: -0.138. In the case of GCUGAUACGAGGAACAGAGTT against Fmr1nb, the z-score is reported as inactive: -0.626. With “GCAGAGAGGAUAACUGACCTT against B430110G05Rik” the z-score was inactive: -0.961. For “GGAGUUACGCCGAAACAGGTT against 1700049M11Rik”, the z-score was inactive: -1.18. In the case of “GGAUCCAAGUUCCUGGCUCTT against A330096I21Rik”, the z-score is reported as inactive: -0.601. In the case of GCCAACGUAUUUGUGGCAUTT against Olfr1183, the z-score is reported as inactive: 0.566. For GGAAGACAAAGUCUGGGUGTT against Hpxn, the z-score was inactive: 0.0033. With GCUACAGGUCAAUGUCGUGTT against Tcte2 the z-score was inactive: -0.14. With CGUGGCUUCUUUCCGCUCUTT against Mtmr4 the z-score was inactive: 0.604. With GCAUCAUUACUGGAUUCCUTT against Olfr859 the z-score was inactive: -0.826. In the case of GCUUCAAUGUAUUUUUUGCTT against Olfr1459, the z-score is reported as inactive: -1.35. With GGCCUGGGAAGUGAACAAATT against Faah the z-score was inactive: -1.56. For GGAGCUUUCCAUAUAUAAGTT against Sgcb, the z-score was inactive: 1.16. With CCAAAGAUCGGGAAAAGGATT against LOC545475 the z-score was inactive: 1.08. In the case of GGUGCUAAUGACCUUUGAATT against Dbp, the z-score is reported as inactive: -2.21. In the case of CCAUAAUUCCAGAACAUACTT against Hspg2, the z-score is reported as inactive: -1.3. For “GGCUAGAGAAAUAGUGUUGTT against D6Ertd253e”, the z-score was inactive: -0.28. With “GGAACUAAAUAUCCCUAUGTT against 2010003I19Rik” the z-score was inactive: 1.46. For GGAUGCUCUGGUUACAUUATT against Wdt2, the z-score was inactive: 0.52. For “GGGUAUUUUGUACGAACACTT against 1600020H07Rik”, the z-score was inactive: -0.992. With “GGAUUUUAAAGUCAUGUCATT against D130040H23Rik” the z-score was inactive: -0.25. For GCCUAAGCUUGUAUGUUUGTT against Anapc2, the z-score was inactive: -0.298. For “GCAAGCUACAUGCAUACAUTT against A630033E08Rik”, the z-score was inactive: 0.362. For GGAUGAAGAGGUUGGAGAUTT against Cct3, the z-score was inactive: -3.14. In the case of GGCCCUCUCCAAGUCUAUATT against Pex7, the z-score is reported as inactive: -1.91. For “GGAGAAAUCGGAUGUGAAUTT against 1110030K22Rik”, the z-score was inactive: 0.12. With CGGCAAGAUGUCUACUAACTT against Wdtc1 the z-score was inactive: -0.584. For “GGUCAUGUUUGGUUAGAAGTT against 1500034J20Rik”, the z-score was inactive: -1.07. With “GGCAACUGCCUUUACCAUATT against 6330404A07Rik” the z-score was inactive: 1.84. For GUCCCUCUGUUCGUCACGUTT against Olfr1449, the z-score was inactive: -0.23. For GGUUCUGAAUGGUUAUUUCTT against Itih5, the z-score was inactive: 1.26. For “GGAUUGGUGAUCUAUGUGUTT against 6530401N04Rik”, the z-score was inactive: 0.072. For GCUGAGUAGACUUCGUCUGTT against Kifc2, the z-score was inactive: 0.502. With GCAGGAUUCAAAGAUCUAATT against Takrp the z-score was inactive: -1.08. For GGACUACAUGGAUGCCAUGTT against Prkrip1, the z-score was inactive: -1.3. In the case of GGUGCAGAGAAGUGUAACATT against Slc25a21, the z-score is reported as inactive: -0.0441. With CCUGUACAGUUGGAAACAUTT against Snrpd1 the z-score was inactive: -2.07. With “GCUAUGACCGGAGGUUCUATT against 1700010A17Rik” the z-score was inactive: -2.15. For GGCGAAAAAAGCUAAGCAGTT against Rg9mtd1, the z-score was inactive: -0.819. With GCUUCUGAUGGACAUUCACTT against Uhrf2 the z-score was inactive: -0.29. For UACUUAGGCCCUUGAGCAUTT against Timm13a, the z-score was inactive: -2.17. In the case of GGAAUAUGCCAAAAUGAAATT against Cdca1, the z-score is reported as inactive: -2.15. For CCACUGCACCACAACUCAATT against Zfp36l2, the z-score was inactive: -0.0833. With CGCGAACUGCUCUAUAGAGTT against Hmgcl the z-score was inactive: -0.0351. In the case of UAGUCACAAGGUUUGAAACTT against LOC382106, the z-score is reported as inactive: 0.396. For “GGUUCACGGGUUCUAAGAUTT against 1500010M16Rik”, the z-score was inactive: 1.8. For GGCACUGUGGUGUAAAUCCTT against Nnt, the z-score was inactive: -1.1. For GGGACUUCAUGCUAAGUUUTT against Smarcd3, the z-score was inactive: -0.47. With CCACUCUGUUAUCACCGAGTT against Olfr774 the z-score was inactive: 0.182. In the case of “GGAUCUCUAACUUCACCAGTT against 2410042D21Rik”, the z-score is reported as inactive: 1.52. In the case of “GCUUUGGAGAGUCAGUAAATT against A130070M06”, the z-score is reported as inactive: -0.748. With GGUAGGAGGUAUUUCCCACTT against Scotin the z-score was inactive: 0.655. With GGCUUAUAUUCAACCAUGGTT against Elavl4 the z-score was inactive: 0.77. For GGAGACCCUGGUGAGAAGATT against Emid1, the z-score was inactive: 0.87. With CCACAAUUUGAGAACAUUUTT against Tyrp1 the z-score was inactive: -1.58. In the case of GGAGAUCAUGCUCAAGAACTT against Dgke, the z-score is reported as inactive: 0.968. With GCAAAGUUGGUGACGUGAUTT against Pole2 the z-score was inactive: 0.716. In the case of GGAAAGCAAUGCAUUACAATT against Zfp482, the z-score is reported as inactive: 1.28. For GGAAUCUAGACUUAAUUCUTT against Trp53inp1, the z-score was inactive: 1. In the case of CCCUCAGAUUCAAAAAGUGTT against Krt2-1, the z-score is reported as inactive: 0.097. In the case of GGGAGACCACAAUCAGCCATT against Kirrel1, the z-score is reported as inactive: -0.212. For GGUCUUACGUUGGAUUUUUTT against Extl3, the z-score was inactive: 1.38. With GGAAUUUAUUCACCCAGACTT against Sirt2 the z-score was inactive: 0.416. With GUCUGAACCCAUCUUCUAUTT against Hcrt the z-score was inactive: 0.0318. For CCAAUGGAAAAAGUGCACATT against Olfr1061, the z-score was inactive: 0.727. In the case of GCUCAUAGGUUUUGAGUAATT against Wt1, the z-score is reported as inactive: -0.233. For GGACCAUUAAACUAAAUGGTT against Tpte, the z-score was inactive: -0.534. In the case of “CGAUGACGAUGCCUAACCATT against A930013B10Rik”, the z-score is reported as inactive: -1.35. In the case of GGUGGAUACAGAAAGUCAUTT against F2, the z-score is reported as inactive: 0.357. For CCUUAAUCCAAACAAGUCUTT against Ncl, the z-score was inactive: -0.618. In the case of CCCGGAAGACACUAAAACUTT against Gmeb1, the z-score is reported as inactive: -1.3. In the case of “GGAAUAAGAAGCCACUCUATT against 2310044D20Rik”, the z-score is reported as inactive: -0.17. In the case of GAACUUGAUCCUCCCUGUCTT against Bglap-rs1, the z-score is reported as inactive: 1.45.
